The list shows a part of the results.
compound: CS(=O)(=O)c1ccc(-c2cnc(N)c(C(=O)Nc3ccccc3)n2)cc1; assay: log2 fold change, soluble protein after heating vs DMSO (PISA); higher = thermal stabilisation; K562 cells, 10 uM, 30 min; active = over 0.2 and 3.5 SD of the protein, either way, in both replicates (recomputed)
Outline: (§1)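 Quantification of soluble protein used TMTpro 16plex LC-MS/MS, with channel sums equalised. Samples were the supernatant after 21,000xg for 90 min of pooled aliquots from K562 cells (2×10^6 cells/mL) treated with 10 μM compound for 30 min, heated for 3 min over 48°C-58°C, and extracted in PBS with 0.5% NP-40 at 4°C. Values, from duplicates, describe thermal stability against control samples on a log2 fold-change scale.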

Sequences of proteins named here, by UniProt entry; tags and fusion partners are left off. A change or cut given only in a name is not applied to a line headed by its entry.
UniProt Q96KQ7: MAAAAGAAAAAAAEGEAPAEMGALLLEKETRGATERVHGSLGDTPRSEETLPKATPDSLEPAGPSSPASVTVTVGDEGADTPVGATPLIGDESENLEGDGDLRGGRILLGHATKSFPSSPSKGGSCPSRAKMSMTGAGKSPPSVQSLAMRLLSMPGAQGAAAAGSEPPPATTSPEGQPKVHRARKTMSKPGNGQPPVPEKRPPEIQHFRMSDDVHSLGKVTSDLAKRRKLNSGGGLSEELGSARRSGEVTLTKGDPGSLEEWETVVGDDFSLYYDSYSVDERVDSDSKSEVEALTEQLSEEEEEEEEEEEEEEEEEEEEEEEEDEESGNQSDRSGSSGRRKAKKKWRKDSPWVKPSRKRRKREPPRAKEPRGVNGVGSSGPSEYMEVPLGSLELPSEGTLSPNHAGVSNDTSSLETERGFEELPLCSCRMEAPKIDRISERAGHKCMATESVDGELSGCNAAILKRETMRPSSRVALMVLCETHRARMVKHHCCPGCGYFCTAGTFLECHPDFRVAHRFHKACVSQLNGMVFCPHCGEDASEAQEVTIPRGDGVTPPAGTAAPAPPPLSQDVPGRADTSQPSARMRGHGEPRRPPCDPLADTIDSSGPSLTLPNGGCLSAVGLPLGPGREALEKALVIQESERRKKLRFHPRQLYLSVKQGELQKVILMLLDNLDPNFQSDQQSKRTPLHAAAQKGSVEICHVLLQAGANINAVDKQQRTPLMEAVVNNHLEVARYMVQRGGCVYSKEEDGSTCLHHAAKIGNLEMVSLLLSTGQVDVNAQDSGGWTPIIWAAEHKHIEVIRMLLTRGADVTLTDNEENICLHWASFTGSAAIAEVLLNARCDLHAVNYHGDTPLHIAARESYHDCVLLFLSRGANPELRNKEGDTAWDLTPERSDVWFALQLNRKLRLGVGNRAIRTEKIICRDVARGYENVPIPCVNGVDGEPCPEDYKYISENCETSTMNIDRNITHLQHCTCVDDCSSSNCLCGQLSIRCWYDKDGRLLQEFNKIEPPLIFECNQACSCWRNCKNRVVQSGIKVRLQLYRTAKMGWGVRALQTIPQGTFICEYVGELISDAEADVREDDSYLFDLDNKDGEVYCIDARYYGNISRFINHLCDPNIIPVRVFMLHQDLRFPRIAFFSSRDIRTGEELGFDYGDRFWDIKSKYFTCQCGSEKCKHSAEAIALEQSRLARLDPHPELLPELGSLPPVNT
UniProt Q14249: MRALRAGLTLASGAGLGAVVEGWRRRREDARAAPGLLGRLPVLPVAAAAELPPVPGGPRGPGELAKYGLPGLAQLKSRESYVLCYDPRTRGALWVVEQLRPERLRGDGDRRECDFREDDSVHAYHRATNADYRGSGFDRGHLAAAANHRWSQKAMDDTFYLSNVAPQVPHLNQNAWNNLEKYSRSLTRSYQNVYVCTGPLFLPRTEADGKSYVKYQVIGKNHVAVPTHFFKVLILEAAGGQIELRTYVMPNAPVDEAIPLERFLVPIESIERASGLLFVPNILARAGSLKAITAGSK
UniProt Q14232, whole entry, looked up: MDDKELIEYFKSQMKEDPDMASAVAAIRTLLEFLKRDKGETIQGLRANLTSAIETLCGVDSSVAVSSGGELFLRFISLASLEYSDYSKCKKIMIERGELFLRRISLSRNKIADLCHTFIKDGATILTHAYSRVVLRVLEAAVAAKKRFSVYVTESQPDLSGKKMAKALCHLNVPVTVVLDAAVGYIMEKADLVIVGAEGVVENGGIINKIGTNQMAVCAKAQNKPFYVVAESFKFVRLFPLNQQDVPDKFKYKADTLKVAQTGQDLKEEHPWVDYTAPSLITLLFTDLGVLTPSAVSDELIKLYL
UniProt P09104, whole entry, looked up: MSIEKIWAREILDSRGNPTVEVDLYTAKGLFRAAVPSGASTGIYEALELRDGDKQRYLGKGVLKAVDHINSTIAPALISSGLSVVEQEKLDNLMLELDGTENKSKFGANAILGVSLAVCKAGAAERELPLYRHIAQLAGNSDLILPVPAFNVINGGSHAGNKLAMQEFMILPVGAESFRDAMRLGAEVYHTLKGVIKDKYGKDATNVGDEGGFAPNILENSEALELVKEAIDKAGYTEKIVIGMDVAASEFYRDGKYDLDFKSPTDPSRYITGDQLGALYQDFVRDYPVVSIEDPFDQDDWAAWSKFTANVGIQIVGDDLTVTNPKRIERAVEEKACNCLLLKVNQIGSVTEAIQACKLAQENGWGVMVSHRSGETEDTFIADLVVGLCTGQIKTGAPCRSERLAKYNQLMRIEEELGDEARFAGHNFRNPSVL
UniProt Q13542: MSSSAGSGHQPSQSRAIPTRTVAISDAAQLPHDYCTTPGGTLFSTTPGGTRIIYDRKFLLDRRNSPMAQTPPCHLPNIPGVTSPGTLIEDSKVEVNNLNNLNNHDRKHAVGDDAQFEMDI
UniProt O60841: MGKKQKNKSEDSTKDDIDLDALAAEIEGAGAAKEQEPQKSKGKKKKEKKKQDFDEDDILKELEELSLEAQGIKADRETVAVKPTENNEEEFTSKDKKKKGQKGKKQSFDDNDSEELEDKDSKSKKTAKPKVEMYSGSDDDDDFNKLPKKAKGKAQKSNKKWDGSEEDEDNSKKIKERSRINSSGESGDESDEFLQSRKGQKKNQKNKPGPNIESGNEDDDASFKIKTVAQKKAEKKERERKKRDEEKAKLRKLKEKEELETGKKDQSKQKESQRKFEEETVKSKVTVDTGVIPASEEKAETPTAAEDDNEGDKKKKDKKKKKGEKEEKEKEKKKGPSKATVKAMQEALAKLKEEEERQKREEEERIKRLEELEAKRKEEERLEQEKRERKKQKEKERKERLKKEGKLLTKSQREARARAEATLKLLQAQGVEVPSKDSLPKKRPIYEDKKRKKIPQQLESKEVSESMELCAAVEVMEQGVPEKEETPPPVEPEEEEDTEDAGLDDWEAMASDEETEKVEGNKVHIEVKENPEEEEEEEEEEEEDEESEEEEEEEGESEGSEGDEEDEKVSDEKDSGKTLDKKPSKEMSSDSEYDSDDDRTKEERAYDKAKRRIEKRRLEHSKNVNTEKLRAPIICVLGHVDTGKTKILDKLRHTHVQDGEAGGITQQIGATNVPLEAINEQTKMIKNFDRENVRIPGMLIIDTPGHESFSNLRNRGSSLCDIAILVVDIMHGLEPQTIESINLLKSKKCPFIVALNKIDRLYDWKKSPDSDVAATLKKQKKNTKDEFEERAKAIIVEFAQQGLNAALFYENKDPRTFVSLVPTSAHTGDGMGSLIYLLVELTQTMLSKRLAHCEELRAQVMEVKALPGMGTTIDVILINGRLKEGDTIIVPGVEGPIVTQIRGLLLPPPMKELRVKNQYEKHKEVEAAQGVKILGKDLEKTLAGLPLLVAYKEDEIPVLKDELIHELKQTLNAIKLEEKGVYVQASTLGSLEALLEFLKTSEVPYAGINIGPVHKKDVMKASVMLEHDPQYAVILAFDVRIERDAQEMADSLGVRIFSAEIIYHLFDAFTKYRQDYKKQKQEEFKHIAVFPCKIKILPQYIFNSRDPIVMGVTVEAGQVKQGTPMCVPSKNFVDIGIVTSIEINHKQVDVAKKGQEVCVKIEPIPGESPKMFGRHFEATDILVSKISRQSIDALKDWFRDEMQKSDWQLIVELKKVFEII
UniProt Q9H223: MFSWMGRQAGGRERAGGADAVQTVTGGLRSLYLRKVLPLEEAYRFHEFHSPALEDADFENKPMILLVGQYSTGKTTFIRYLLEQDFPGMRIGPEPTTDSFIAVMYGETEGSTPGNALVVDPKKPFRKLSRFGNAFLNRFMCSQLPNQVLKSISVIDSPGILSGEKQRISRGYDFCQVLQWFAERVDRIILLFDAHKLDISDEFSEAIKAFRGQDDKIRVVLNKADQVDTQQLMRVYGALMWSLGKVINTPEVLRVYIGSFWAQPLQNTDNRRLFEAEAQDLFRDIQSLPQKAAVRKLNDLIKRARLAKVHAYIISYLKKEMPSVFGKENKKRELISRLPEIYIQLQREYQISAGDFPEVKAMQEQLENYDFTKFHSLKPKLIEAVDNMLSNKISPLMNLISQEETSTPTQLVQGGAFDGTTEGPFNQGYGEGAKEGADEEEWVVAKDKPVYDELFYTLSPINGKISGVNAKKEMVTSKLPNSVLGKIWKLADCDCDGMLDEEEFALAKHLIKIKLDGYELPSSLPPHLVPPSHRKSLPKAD
UniProt Q99613, whole entry, looked up: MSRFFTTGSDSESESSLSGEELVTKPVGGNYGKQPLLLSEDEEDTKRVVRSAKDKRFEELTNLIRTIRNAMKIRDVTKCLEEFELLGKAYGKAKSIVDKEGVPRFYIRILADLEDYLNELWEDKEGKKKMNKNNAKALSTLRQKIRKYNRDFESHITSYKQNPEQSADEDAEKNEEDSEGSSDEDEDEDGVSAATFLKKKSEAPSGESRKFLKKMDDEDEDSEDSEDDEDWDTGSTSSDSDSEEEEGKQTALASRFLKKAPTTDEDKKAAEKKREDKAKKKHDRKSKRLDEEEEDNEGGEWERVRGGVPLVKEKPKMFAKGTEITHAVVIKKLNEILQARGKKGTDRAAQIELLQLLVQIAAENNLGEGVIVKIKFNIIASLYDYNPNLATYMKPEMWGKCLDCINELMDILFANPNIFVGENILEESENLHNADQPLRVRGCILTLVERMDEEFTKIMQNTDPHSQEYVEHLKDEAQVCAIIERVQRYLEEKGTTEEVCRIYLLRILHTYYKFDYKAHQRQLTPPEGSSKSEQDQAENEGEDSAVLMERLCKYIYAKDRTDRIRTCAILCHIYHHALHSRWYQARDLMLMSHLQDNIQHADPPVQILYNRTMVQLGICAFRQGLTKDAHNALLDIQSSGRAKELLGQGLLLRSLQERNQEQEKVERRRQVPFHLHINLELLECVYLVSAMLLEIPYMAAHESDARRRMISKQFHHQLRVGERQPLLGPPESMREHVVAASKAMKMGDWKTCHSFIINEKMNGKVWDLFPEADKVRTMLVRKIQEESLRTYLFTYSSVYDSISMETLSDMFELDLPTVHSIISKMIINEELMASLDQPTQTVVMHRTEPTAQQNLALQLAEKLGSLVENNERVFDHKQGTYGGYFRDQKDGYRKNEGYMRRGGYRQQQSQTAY
UniProt Q8NFI3: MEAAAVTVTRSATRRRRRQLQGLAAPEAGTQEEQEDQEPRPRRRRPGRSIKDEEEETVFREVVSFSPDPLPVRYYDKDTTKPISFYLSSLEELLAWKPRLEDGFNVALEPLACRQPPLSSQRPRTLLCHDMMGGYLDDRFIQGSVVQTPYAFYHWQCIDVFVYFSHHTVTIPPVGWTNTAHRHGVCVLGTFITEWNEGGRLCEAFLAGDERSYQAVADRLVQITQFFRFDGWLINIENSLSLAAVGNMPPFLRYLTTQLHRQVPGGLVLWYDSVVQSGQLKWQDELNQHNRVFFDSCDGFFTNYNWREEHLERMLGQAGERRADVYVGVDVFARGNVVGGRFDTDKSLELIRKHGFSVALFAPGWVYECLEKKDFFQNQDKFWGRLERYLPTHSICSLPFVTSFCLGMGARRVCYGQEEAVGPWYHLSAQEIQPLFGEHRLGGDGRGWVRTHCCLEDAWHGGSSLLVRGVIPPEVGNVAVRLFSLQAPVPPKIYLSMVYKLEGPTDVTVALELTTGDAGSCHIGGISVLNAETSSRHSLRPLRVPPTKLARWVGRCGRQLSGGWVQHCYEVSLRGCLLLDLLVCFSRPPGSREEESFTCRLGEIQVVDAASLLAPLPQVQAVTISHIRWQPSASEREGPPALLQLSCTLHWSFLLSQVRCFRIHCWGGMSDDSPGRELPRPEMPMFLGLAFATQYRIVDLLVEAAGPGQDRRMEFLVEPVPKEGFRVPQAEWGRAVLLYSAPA
UniProt Q96C19: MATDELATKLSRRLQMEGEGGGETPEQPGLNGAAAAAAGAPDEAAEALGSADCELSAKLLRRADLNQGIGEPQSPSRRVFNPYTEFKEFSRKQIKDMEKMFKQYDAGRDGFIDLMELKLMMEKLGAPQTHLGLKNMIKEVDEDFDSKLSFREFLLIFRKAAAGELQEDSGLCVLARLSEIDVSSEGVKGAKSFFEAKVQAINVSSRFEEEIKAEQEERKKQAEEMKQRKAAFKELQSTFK
UniProt O15372, whole entry, looked up: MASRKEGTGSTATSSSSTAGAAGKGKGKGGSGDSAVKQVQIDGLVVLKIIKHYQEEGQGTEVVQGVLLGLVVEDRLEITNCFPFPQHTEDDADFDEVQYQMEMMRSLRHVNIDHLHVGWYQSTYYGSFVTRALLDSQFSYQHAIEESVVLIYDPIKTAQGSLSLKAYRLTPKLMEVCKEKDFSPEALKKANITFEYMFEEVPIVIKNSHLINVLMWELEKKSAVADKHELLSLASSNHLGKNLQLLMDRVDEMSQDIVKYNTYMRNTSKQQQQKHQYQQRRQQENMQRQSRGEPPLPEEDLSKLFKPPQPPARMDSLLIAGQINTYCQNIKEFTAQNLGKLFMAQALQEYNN
UniProt Q8N9N8: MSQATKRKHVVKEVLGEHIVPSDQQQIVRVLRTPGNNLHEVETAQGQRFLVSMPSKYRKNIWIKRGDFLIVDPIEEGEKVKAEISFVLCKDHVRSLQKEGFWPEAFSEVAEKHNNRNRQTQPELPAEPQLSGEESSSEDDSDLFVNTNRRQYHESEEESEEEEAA

Target	log2 fold change
EIF2D (UniProt P41214)	inactive: 0.056
EMC2 (UniProt Q15006)	inactive: -0.014
EHMT2 (UniProt Q96KQ7)	inactive: 0.03
ENDOG (UniProt Q14249)	inactive: -0.016
EIF4G2 (UniProt P78344)	inactive: 0.015
EIF2B1 (UniProt Q14232)	inactive: -0.012
EEF1A2 (UniProt Q05639)	inactive: 0.046
ENOPH1 (UniProt Q9UHY7)	inactive: 0.173
EIF4ENIF1 isoform 3 (UniProt Q9NRA8)	inactive: -0.034
ENO2 (UniProt P09104)	inactive: -0.024
EIF4EBP2 (UniProt Q13542)	inactive: -0.133
EFTUD2 (UniProt Q15029)	inactive: -0.057
EEF1AKMT2 (UniProt Q5JPI9)	inactive: -0.085
EIF5B (UniProt O60841)	inactive: -0.017
EHD4 (UniProt Q9H223)	inactive: 0.011
EIPR1 (UniProt Q53HC9)	inactive: 0.041
EI24 (UniProt O14681)	inactive: 0.005

Target	log2 fold change
EIF3C (UniProt Q99613)	inactive: -0.025
EIF3E (UniProt P60228)	inactive: 0
EIF3L (UniProt Q9Y262)	inactive: -0.023
EMC4 (UniProt Q5J8M3)	inactive: 0
EIF4EBP1 (UniProt Q13541)	inactive: -0.062
ELP5 isoform 4 (UniProt Q8TE02)	inactive: 0.019
EIF5 (UniProt P55010)	inactive: 0.023
ENGASE (UniProt Q8NFI3)	inactive: 0.001
EEFSEC (UniProt P57772)	inactive: -0.043
EEF2 (UniProt P13639)	inactive: -0.004
EIF3F (UniProt O00303)	inactive: -0.02
EIF3A (UniProt Q14152)	inactive: -0.018
ELAC2 (UniProt Q9BQ52)	inactive: 0.053
EFHD2 (UniProt Q96C19)	inactive: 0.01
EIF3H (UniProt O15372)	inactive: -0.029
ELOB (UniProt Q15370)	inactive: 0.012
EIF1AD (UniProt Q8N9N8)	inactive: 0.025

compound: C[C@@H](Oc1cc(-c2cnn(C3CCNCC3)c2)cnc1N)c1c(Cl)ccc(F)c1Cl [crizotinib]; assay: as above
Outline: as §1

Target	log2 fold change
EIF2D (UniProt P41214)	inactive: -0.138
EMC2 (UniProt Q15006)	inactive: -0.023
EHMT2 (UniProt Q96KQ7)	inactive: -0.041
ENDOG (UniProt Q14249)	inactive: 0.047
EIF4G2 (UniProt P78344)	inactive: -0.157
EIF2B1 (UniProt Q14232)	inactive: 0.016
EEF1A2 (UniProt Q05639)	inactive: -0.046
ENOPH1 (UniProt Q9UHY7)	inactive: -0.28
EIF4ENIF1 isoform 3 (UniProt Q9NRA8)	inactive: -0.098
ENO2 (UniProt P09104)	inactive: -0.047
EIF4EBP2 (UniProt Q13542)	inactive: 0.051
EFTUD2 (UniProt Q15029)	inactive: 0.099
EIF5B (UniProt O60841)	inactive: 0.023
EHD4 (UniProt Q9H223)	inactive: -0.066
EIPR1 (UniProt Q53HC9)	inactive: 0.105
EI24 (UniProt O14681)	inactive: -0.006
EIF3C (UniProt Q99613)	inactive: -0.178

Target	log2 fold change
EIF3E (UniProt P60228)	inactive: -0.246
EIF3L (UniProt Q9Y262)	inactive: -0.064
EMC4 (UniProt Q5J8M3)	inactive: 0.105
EIF4EBP1 (UniProt Q13541)	inactive: 0.046
ELP5 isoform 4 (UniProt Q8TE02)	inactive: 0.042
EIF5 (UniProt P55010)	inactive: 0.045
ENGASE (UniProt Q8NFI3)	inactive: -0.031
EEFSEC (UniProt P57772)	inactive: -0.057
EEF2 (UniProt P13639)	inactive: 0.018
EIF3F (UniProt O00303)	inactive: 0.037
EIF3A (UniProt Q14152)	inactive: -0.166
ELAC2 (UniProt Q9BQ52)	inactive: -0.021
EFHD2 (UniProt Q96C19)	inactive: 0.046
EIF3H (UniProt O15372)	inactive: -0.08
ELOB (UniProt Q15370)	inactive: 0.054
EIF1AD (UniProt Q8N9N8)	inactive: 0.057

compound: C[C@@H]1COCCN1C2=NC(=NC(=C2)C3(CC3)S(=O)(=O)C)C4=C5C=CNC5=CC=C4; assay: as above
Outline: as §1

Target	log2 fold change
EIF2D (UniProt P41214)	inactive: 0.031
EMC2 (UniProt Q15006)	inactive: -0.034
EHMT2 (UniProt Q96KQ7)	inactive: 0.01
ENDOG (UniProt Q14249)	inactive: 0.03
EIF4G2 (UniProt P78344)	inactive: -0.197
EIF2B1 (UniProt Q14232)	inactive: -0.002
EEF1A2 (UniProt Q05639)	inactive: 0.064
ENOPH1 (UniProt Q9UHY7)	inactive: 0.031
EIF4ENIF1 isoform 3 (UniProt Q9NRA8)	inactive: -0.139
ENO2 (UniProt P09104)	inactive: 0.038
EIF4EBP2 (UniProt Q13542)	inactive: 0.253
EFTUD2 (UniProt Q15029)	inactive: 0.009
EIF5B (UniProt O60841)	inactive: -0.102
EHD4 (UniProt Q9H223)	inactive: 0.079
EIPR1 (UniProt Q53HC9)	inactive: -0.046
EI24 (UniProt O14681)	inactive: 0.025
EIF3C (UniProt Q99613)	inactive: -0.028

Target	log2 fold change
EIF3E (UniProt P60228)	inactive: -0.052
EIF3L (UniProt Q9Y262)	inactive: 0.015
EMC4 (UniProt Q5J8M3)	inactive: 0.09
EIF4EBP1 (UniProt Q13541)	inactive: 0.214
ELP5 isoform 4 (UniProt Q8TE02)	inactive: 0.007
EIF5 (UniProt P55010)	inactive: 0.055
ENGASE (UniProt Q8NFI3)	inactive: 0
EEFSEC (UniProt P57772)	inactive: -0.014
EEF2 (UniProt P13639)	inactive: 0.026
EIF3F (UniProt O00303)	inactive: 0.073
EIF3A (UniProt Q14152)	inactive: -0.006
ELAC2 (UniProt Q9BQ52)	inactive: 0.026
EFHD2 (UniProt Q96C19)	inactive: 0.083
EIF3H (UniProt O15372)	inactive: -0.077
ELOB (UniProt Q15370)	inactive: 0.024
EIF1AD (UniProt Q8N9N8)	inactive: 0.056

Reference: the supplement of paper PMC10849652
